Results from one PubChem assay

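Luminescence from an EWS-FLI1 target-promoter (NR0B1) reporter, set against a CMV-promoter reporter, two days after silencing single genes in TC32 Ewing sarcoma cells.
Each siRNA was applied at 20 nM.
A z-score of the log NR0B1-over-CMV signal, less the median of siRNAs with the same seed; more negative means a stronger specific loss of the NR0B1 reporter.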

The strongest results of the screen are mostly left out here.
Sequences are the guide (antisense) strand, without overhang.

siRNA,target gene,seed-corrected z-score
UUUUAAGCAAUUUGAUUUG,INSM1,1.261
UCAAUCUCCAGGUAGACGA,NOTCH1,0.04311
UCUUCAUCCUCCCAUUUCC,SMCP,-0.9653
UUUGUAAAAGUCCCGCUCC,KRI1,0.5411
AAAAGGGCCUUGAAGAUGU,CTDSP2,-0.6218
UAUGCGUUUGUAAUCAGAG,C5,-0.05439
UUACCACCCUCUUUGACUC,DNAJB7,0.05458
UGCUGUUCCUUUGCUACGG,ITGB1,0.3473
UUCCAUAGUUGCGAGAACC,CTNNAL1,-0.8641
AAUGCUGUUAUUACAUCCC,GDE1,0.08582
UCUCCGCUGAUUUCAGUCC,ACAN,0.2611
UGAAGAAUCGGUUUUGUCG,RIBC1,0.5624
UUGAUUCAUACGACUGCUC,ERCC6L2,-0.3139
UAUCCUUCGAAAAACAUCC,RHEB,0.6409
UCCUUGAUAAGCUAACUGC,CD1A,-0.1126
UUUCUGCUUGGUUCUCUUG,CXCR5,-0.1597
AUCUUCUUGAGCACUAGCC,OTOR,-0.5114
UCAGUUUGUUGUCAGAUCC,AP3S1,0.3878
UUCUUGACAGCUGUCUUGC,FIGLA,0.3894
UUUACUUCAAUAUCAGGCG,ARX,0.4155
ACAGUGUCCAGCAAAAAGG,PLEKHF1,1.622
AUUAUCUCCACACUUAUCA,LOC729187,0.3955
AUUCAUAAAAGUUGUUUCC,GCHFR,-0.0869
AUUAGAGGAACCAAGAUCU,L3MBTL1,0.01839
UGAAGAUCUGACUCGAUGU,SLC11A1,0.3276
UACCAGACAUCUAACAUCC,IL12RB2,0.01828
UUAUUUACUAAGAGACAGC,INSL3,0.07656
UACUAGGAAAUGCAAAGUC,HSPA1A,0.138
UUUGGUGAAUGAUCAAAGG,PTPN2,0.4323
UAACACUUCAGUAAACUUC,LOC729681,-1.199
UAAAGAUCUAGGUCUACGC,NFE2L3,-0.6466
UUAGAUCAAUGUCCAAUUC,YIPF4,-0.3932
UGUUGGUUUACAAAUGCCU,BBS1,-0.644
AAAAAGACUAAGAAGAAUG,SDHAF2,0.8302
UGUGAAAACGCAUCUUAGC,GFRA3,-0.003498
UGUACUGUCACAUAUAGCC,IFT172,1.013
UGUUGUUGAAUCUCUUUCC,ZSCAN32,-0.2286
UUUCAUUCUGGUGGAGCUC,TMCC1,-0.1864
UGUAUGAUGAAGGUGUCCC,C6orf203,0.4507
AAAGGUUAAAAUAUCGAGG,EID2,0.6362
UUCUUGUACAGCUCUUGGG,GIMAP5,0.3053
UUCAUACCCAACCUUGUGG,SLC51A,-0.03623
UUCAUGCUGAUAUUUAGUG,LOC727838,-0.1328
UUUCCAUUUAGCAAAAUCU,LSM5,-0.1262
AAUUUGACUAGGUCAAUGC,TNNI3K,-0.5164
UUCCAUUGCAUAAAGACUG,TYR,-0.6897
UCCUCAAUCACGUUGAUCU,ACAP1,-0.4832
AAAUUCAGCAAAGAGUUCC,ALYREF,1.847
AUAGUUUCCAGAGUCGUGG,IL6R,0.009986
UUUUCAACCAGCGCAGUGU,FGFR1,0.3532
UGGUUAAUAGGUAGUAUGG,INTS6L,-0.09734
UUGUGGUUCAUAGCGGCAG,P2RX6,-0.9143
AUUGGUAAGAUGAAAUACC,DFNB59,0.06817
AACUUGUUCAUAGCAACGG,B4GALT3,-1.441
UUGUCAUCUAAGUAGGUUG,SLCO5A1,-0.1095
UUCUGGUAUAGCAUAGUUC,IQCH,-0.6025
UAACGGCUGCUUAAGUUCC,MECOM,-0.1341

The first 3 entries again:

{"sirna": "UUUUAAGCAAUUUGAUUUG", "target gene": "INSM1", "seed-corrected z-score": "1.261"}
{"sirna": "UCAAUCUCCAGGUAGACGA", "target gene": "NOTCH1", "seed-corrected z-score": "0.04311"}
{"sirna": "UCUUCAUCCUCCCAUUUCC", "target gene": "SMCP", "seed-corrected z-score": "-0.9653"}

Data taken from PubChem BioAssay AID1159506, deposited by NCATS (2015).